{"source": "PubChem BioAssay AID1053208, Peter MacCallum Cancer Centre | 2014", "assay": "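Find knock-downs that sensitise mouse osteosarcoma cells to doxorubicin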 (primary screen)", "cells": "mouse osteosarcoma cells, early-passage culture from an engineered mouse model of fibroblastic bone tumour", "knock-down reagent": "siRNA pool against mouse genes, 40 nM", "time to read-out": "about 120 h (48 h before drug, then 72 h with drug)", "conditions": "doxorubicin 100 nM for 72 h, roughly 30-40% inhibitory dose", "measurement": "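Viability read as ATP luminescence after 72 h of 100 nM doxorubicin or none, duplicate wells averaged, scaled to non-targeting siRNA, then expressed as robust z-scores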", "reading the numbers": "viability z-score with doxorubicin: higher = more viable cells under doxorubicin; viability z-score without drug: higher = more viable cells with knock-down alone", "rule for the call": "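a pool counts as active when its viability z-score with doxorubicin is -2 or below and its z-score without drug lies between -2 and 2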", "note": "In all, the deposit lists about 17,000 reagents; this is an unselected part. 788 of them (4.7%) count as active. 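Calls rest on z-score classes alone; an extra cut-off of viability at most 70% of control was not applied to them.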 Further read-outs or replicates are left out here."}
{"gene knocked down": "Psg23 (pregnancy-specific beta-1-glycoprotein 23)", "combined z-score class": "no change with or without drug", "viability z-score with doxorubicin": 0.67, "viability z-score without drug": 0.51, "Outcome": "inactive"}
{"gene knocked down": "Nell2 (NEL-like 2)", "combined z-score class": "no change with or without drug", "viability z-score with doxorubicin": 0.79, "viability z-score without drug": -0.51, "Outcome": "inactive"}
{"gene knocked down": "Sf3b2 (splicing factor 3b, subunit 2)", "combined z-score class": "low cell count with and without drug", "viability z-score with doxorubicin": -5.62, "viability z-score without drug": -4.55, "Outcome": "inactive"}
{"gene knocked down": "Or4a72 (olfactory receptor family 4 subfamily A member 72)", "combined z-score class": "no change with or without drug", "viability z-score with doxorubicin": 0.45, "viability z-score without drug": -0.51, "Outcome": "inactive"}
{"gene knocked down": "Dnm3 (dynamin 3)", "combined z-score class": "no change with or without drug", "viability z-score with doxorubicin": 0.45, "viability z-score without drug": -0.84, "Outcome": "inactive"}
{"gene knocked down": "Apol7c (apolipoprotein L 7c)", "combined z-score class": "no change with or without drug", "viability z-score with doxorubicin": -0.9, "viability z-score without drug": -0.51, "Outcome": "inactive"}
{"gene knocked down": "Miga2 (mitoguardin 2)", "combined z-score class": "no change with or without drug", "viability z-score with doxorubicin": 0, "viability z-score without drug": 1.85, "Outcome": "inactive"}
{"gene knocked down": "Slc7a3", "combined z-score class": "no change with or without drug", "viability z-score with doxorubicin": 0.67, "viability z-score without drug": 0.17, "Outcome": "inactive"}
{"gene knocked down": "Plch1 (phospholipase C, eta 1)", "combined z-score class": "low cell count with doxorubicin only", "viability z-score with doxorubicin": -2.02, "viability z-score without drug": -0.84, "Outcome": "active"}
{"gene knocked down": "Il19 (interleukin 19)", "combined z-score class": "no change with or without drug", "viability z-score with doxorubicin": 0.56, "viability z-score without drug": -0.17, "Outcome": "inactive"}
{"gene knocked down": "Serpind1 (serine (or cysteine) peptidase inhibitor, clade D, member 1)", "combined z-score class": "no change with or without drug", "viability z-score with doxorubicin": 0, "viability z-score without drug": 1.52, "Outcome": "inactive"}
{"gene knocked down": "Ros1 (Ros1 proto-oncogene, receptor tyrosine kinase)", "combined z-score class": "no change with or without drug", "viability z-score with doxorubicin": -0.56, "viability z-score without drug": 0.51, "Outcome": "inactive"}
{"gene knocked down": "Rpl6 (ribosomal protein L6)", "combined z-score class": "low cell count with and without drug", "viability z-score with doxorubicin": -6.52, "viability z-score without drug": -6.91, "Outcome": "inactive"}
{"gene knocked down": "Lsm4", "combined z-score class": "no change with or without drug", "viability z-score with doxorubicin": -0.9, "viability z-score without drug": -1.85, "Outcome": "inactive"}
{"gene knocked down": "Tigd5 (tigger transposable element derived 5)", "combined z-score class": "no change with or without drug", "viability z-score with doxorubicin": 0.45, "viability z-score without drug": -0.17, "Outcome": "inactive"}
{"gene knocked down": "Serpinb1b (serine (or cysteine) peptidase inhibitor, clade B, member 1b)", "combined z-score class": "no change with or without drug", "viability z-score with doxorubicin": 0.67, "viability z-score without drug": 0.34, "Outcome": "inactive"}
{"gene knocked down": "Baiap2l2 (BAI1-associated protein 2-like 2)", "combined z-score class": "no change with or without drug", "viability z-score with doxorubicin": 0.45, "viability z-score without drug": 0.17, "Outcome": "inactive"}
{"gene knocked down": "Ska2 (spindle and kinetochore associated complex subunit 2)", "combined z-score class": "high cell count without drug only", "viability z-score with doxorubicin": 1.8, "viability z-score without drug": 2.02, "Outcome": "inactive"}
{"gene knocked down": "Fra10ac1 (FRA10A associated CGG repeat 1)", "combined z-score class": "no change with or without drug", "viability z-score with doxorubicin": -0.79, "viability z-score without drug": 0.51, "Outcome": "inactive"}

2 entries from above in another layout:
Or4a72 (olfactory receptor family 4 subfamily A member 72) | combined z-score class: no change with or without drug; viability z-score with doxorubicin: 0.45; viability z-score without drug: -0.51; Outcome: inactive
Dnm3 (dynamin 3) | combined z-score class: no change with or without drug; viability z-score with doxorubicin: 0.45; viability z-score without drug: -0.84; Outcome: inactive
